A short description of this test: qHTS Assay for Lipid Storage Modulators in Drosophila S3 Cells.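 As to cell number change: cells counted by Cell Tracker Red CMTPX staining in the red channel.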 Particulars: BODIPY lipid droplet fluorescence, 18-24 h; for cell number change: measured here: cell count max response, cells fed with added oleic acid. The procedure, abridged: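 Drosophila S3 cells got compounds at several concentrations plus oleic acid (400 uM solution). Laser-scanning cytometry with 488 nm excitation read lipid droplets at 500-530 nm and cells at 575-640 nm. Percent activity was relative to 20 uM Triacsin C.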
For orientation: In qHTS, concentration-response curves come from the screen itself.

Setting [1] is: measured here: lipid fluorescence (Fed channel) AC50, cells fed with added oleic acid.
Where [2] appears, read: measured here: cell number channel AC50, cells fed with added oleic acid.

The other results are listed elsewhere or left out. Shown are side measurements of this screen, not its main read-out; they come without a call. The list favours compounds with an active or inconclusive main result. The note in brackets gives the kind of curve behind each potency; many fits are weak.

Usually AC50 stands for the midpoint of the concentration-response curve, whichever way the signal moves.

For the molecule `CC1=NN=C(c2ccccc2)C(c2c[nH]c3ccccc23)N1O` (stereo not given), the cell number change worked out at 18.7%. For the same molecule, the AC50 under setting [1] was 32.6 µM [rising, single point].
Regarding `N#Cc1nc(Cc2cccc3ccccc23)oc1NCc1ccco1`, the cell number change is -13.5%. Under setting [1], the AC50 was 0.082 µM [rising, full curve, poor fit].
In the case of `COc1ccccc1NC(=O)C1=C(C)NC(=O)NC1c1cccc(OC)c1OC` (stereo not given), the cell number change is -19.1%. Also, the AC50 under setting [1] is 29.1 µM [falling, single point].
In the case of `CN(C(=O)/C=C/c1ccccc1)C1CCS(=O)(=O)C1` (stereo not given), the cell number change was 13%. For the same molecule, the AC50 under setting [1] is 29.1 µM [falling, single point].
In the case of `O=S(=O)(c1cccc(-c2cn3cc(Cl)ccc3n2)c1)N1CCOCC1`, the cell number change was -5.31%.
`COC(=O)c1cc(C(=O)NCc2ccccc2)c(=O)[nH]c1C`: the cell number change is -141%. In addition, the AC50 under setting [1] is 20.6 µM [falling, partial curve].
`CCN(CC(=O)Nc1cc(Cl)ccc1C)C(=O)C1CC1`: the cell number change was -0.684%. Also, the AC50 under setting [1] was 20.6 µM [rising, partial curve, poor fit].
On to `CC(=O)Nc1ccc(NC(=O)C2CCCN(S(=O)(=O)c3ccc(-n4cnnn4)cc3)C2)cc1` (stereo not given), for which the cell number change stood at 11.7%. Also, the half-maximal activity concentration (AC50) under setting [1] was 0.731 µM [rising, full curve].
For the molecule `COc1ccc(CN(C(=O)Cc2c[nH]c3ccccc23)C(C(=O)NC2CCCCC2)c2ccc(C)o2)cc1` (stereo not given), the cell number change was -102%. Under setting [2], the AC50 was 29.1 µM [falling, single point]. The AC50 under setting [1] was 2.06 µM [falling, partial curve].
On to `O=C(O)c1ccc(NC(=O)c2ccccc2NC(=O)c2cccc(Br)c2)cc1`, for which the cell number change was 7.92%. The AC50 under setting [1] is 29.1 µM [rising, single point].
In the case of `Cc1ccsc1/C=N/NC(=O)c1nnn(-c2nonc2N)c1CSc1ccccc1`, the cell number change worked out at 15.6%. Also, the concentration at half-maximal activity (AC50) under setting [1] is 3.26 µM [falling, partial curve].
As for `CC1=C[C@H]2Cc3cc(C)cc(C)c3S(=O)(=O)[C@@H]2C=C1`, the cell number change was found to be 16%. Also, under setting [1], the AC50 is 1.64 µM [rising, full curve].
On to `CC(Oc1ccc(Cl)cc1)c1ccnn1S(=O)(=O)c1ccccc1` (stereo not given), for which the cell number change is -38.9%. Also, under setting [2], the AC50 was 16.4 µM [falling, single point]. Besides, under setting [1], the AC50 was 29.1 µM [falling, single point].
With `CC1CCN(CCOCCOc2ccc(Br)cc2Cl)CC1`, the cell number change is -1.82%. For the same molecule, under setting [1], the AC50 was 0.517 µM [falling, full curve, poor fit].
Take `COc1cc(C(=O)NNC(=O)c2ccoc2C)cc(OC)c1OC`: the cell number change was -4.69%. For the same molecule, the half-maximal activity concentration (AC50) under setting [1] was 0.082 µM [falling, full curve, poor fit].
Regarding `O=C(Nc1cc2c3c(c1)CC(=O)N3CCC2)c1c(F)cccc1F`, the AC50 reads like this: under setting [2], 1.3 µM [rising, full curve]; under setting [1], 0.92 µM [rising, partial curve].
As to `CN(c1ccc(C(=O)NCC2CCCO2)cc1)S(=O)(=O)c1ccccc1` (stereo not given), the cell number change was 1.97%.
Still for that read-out and setting: then `COc1ccccc1NC(=O)CN(Cc1ccco1)C(=O)c1cccs1`, with 22.2%.
As for `Cc1cccc2nc(C(F)(F)F)nc(=O)n12`, the cell number change is -7.82%. Further, under setting [1], the AC50 was 0.0058 µM [rising, full curve, poor fit].
As for `CCOc1cc(NC(=O)C2CC2)c(OCC)cc1NC(=O)c1ccccn1`, the cell number change is 14.9%. In addition, under setting [1], the AC50 is 4.11 µM [rising, partial curve, poor fit].
Turning to `Cn1nc(CC(=O)Nc2ccc3c(c2)CCC3)c2ccccc2c1=O`, the cell number change was -1.47%. In addition, the half-maximal activity concentration (AC50) under setting [2] is 3.66 µM [falling, partial curve]. Besides, the AC50 under setting [1] is 0.0291 µM [rising, full curve, poor fit].
Take `Cc1ccc(C(C(=O)Nc2ccc3c(c2)OCO3)N(C)C(=O)/C=C\c2ccc3c(c2)OCO3)cc1` (stereo not given): the cell number change was -10.4%. Moreover, under setting [1], the AC50 is 2.06 µM [rising, partial curve, poor fit].
On to `CCN(CC(=O)Nc1ccc(NC(C)=O)cc1)C(=O)Cc1c(Cl)cccc1Cl`, for which the cell number change amounted to 9.83%. In addition, the AC50 under setting [1] is 29.1 µM [rising, single point].
On to `CCOC(=O)Cc1cc(=O)[nH]c(/N=C(/NC(=O)c2ccccc2)Nc2ccccc2C(F)(F)F)n1`, for which the cell number change is -75%. Further, the AC50 under setting [2] is 1.46 µM [falling, partial curve].
In the case of `O=C(NCc1ccncc1)c1ccc(N2CCCC2)c([N+](=O)[O-])c1`, the cell number change is -57%. Under setting [2], the AC50 was 29.1 µM [falling, single point].
Consider `CC(C)NC(=S)Nc1cccc2cnccc12`, for which the cell number change is 14.1%. Also, the AC50 under setting [1] was 16.4 µM [rising, partial curve].
As to `O=C(COC(=O)c1ccccc1NC(=O)c1ccco1)NC1CC1`, the cell number change came to 114%. Moreover, the AC50 under setting [2] is 0.103 µM [rising, full curve, poor fit]. In addition, the AC50 under setting [1] is 0.13 µM [rising, full curve, poor fit].
As for `Cc1nc2ccc(S(=O)(=O)NCC(=O)N3CCCC(C)C3)cc2s1` (stereo not given), the cell number change was -0.114%. The half-maximal activity concentration (AC50) under setting [1] was 23.1 µM [falling, single point].
On to `CCN(Cc1ccccc1)S(=O)(=O)c1cc(C(=O)NCCCN(C)C)ccc1OC`, for which the cell number change was -57.4%. Further, under setting [2], the AC50 is 20.6 µM [falling, partial curve, poor fit].
On to `O=C(OCC(=O)N1CCN(C(=O)c2ccco2)CC1)c1cc(-c2ccco2)nc2ccccc12`, for which the cell number change is -8.05%. Also, the AC50 under setting [1] is 0.82 µM [falling, single point].
As to `c1ccc2nc(-c3ccc(N4CCOCC4)cc3)ccc2c1`, the AC50 reads like this: under setting [2], 1.84 µM [rising, partial curve]; under setting [1], 2.06 µM [rising, partial curve].
Regarding `CC(=O)Nc1nonc1-c1nc2ccccc2n1CCC(C)C`, the cell number change came out at 10.9%. The AC50 under setting [1] was 29.1 µM [rising, single point].
On to `COc1ccc(-c2noc(N3CCC(C(=O)Nc4ccccc4Cl)CC3)n2)cc1`, for which the cell number change worked out at 11.8%. In addition, under setting [1], the AC50 was 6.51 µM [rising, partial curve, poor fit].
As for `Cc1n[nH]c(=S)n1/N=C/c1ccc(OCc2ccc(Cl)cc2Cl)cc1`, the cell number change is -30.7%. Besides, the AC50 under setting [2] was 4.11 µM [falling, full curve, poor fit]. Moreover, the half-maximal activity concentration (AC50) under setting [1] is 4.11 µM [rising, partial curve].
Turning to `N#Cc1ccccc1OCC(=O)OCC(=O)NC1CCS(=O)(=O)C1` (stereo not given), the cell number change was -9.66%. The concentration at half-maximal activity (AC50) under setting [1] was 6.51 µM [rising, single point].
As to `O=c1cc(-c2ccccc2)[nH]c2nc3ccccc3n12`, under setting [1], the AC50 is 0.58 µM [falling, single point].
Regarding `COc1ccc2oc(-c3ccccc3)c(C(=O)N(C)C)c2c1`, the cell number change was -0.276%. Further, the AC50 under setting [1] was 1.84 µM [rising, partial curve].

Values taken from PubChem BioAssay AID2685 (National Center for Advancing Translational Sciences (NCATS), 2010).
